Tested on: T. cruzi intracellular amastigotes
Assay: Image-based assay of the number of T. cruzi infected cells (intracellular amastigotes in 3T3 host cells)
Assay type: cell-based, Trypanosoma cruzi
Protocol: Parasites and host cells were maintained as outlined previously. Briefly, host 3T3 fibroblasts (ATCC, CCL-92) were grown in RPMI medium (Thermo Fisher Scientific, USA) with no phenol red, supplemented with 10% FBS (Thermo Fisher Scientific, USA) and incubated at 37°C in 5% CO2. Host cells were harvested at 70% confluency and were split every 2–3 days in 175 cm^2 flasks. 3T3 cells were cultured up to passage 7 as contact inhibition was reduced or lost at higher passages. Prior to infection with T. cruzi trypomastigotes, host cells were seeded at 1.2 x 10^6 cells in 75 cm^2 or 4 x 10^5 cells in 25 cm^2 flasks and grown for 24 hours before parasite addition. […]
The activity of the nucleoside analogues against T. cruzi intracellular amastigotes following 24, 48 hours exposure and compound wash off, was determined using image-based techniques as previously described. […]
IC50 values for inhibitory activity of both the nucleoside analogues tested as DNA probes and known inhibitors tested to determine their effect on replication of T. cruzi were calculated in GraphPad Prism 5, using sigmoidal dose response with variable slope. […] The p-value for difference in the % activity at Emax concentrations for compounds with known activity (EdU identified parasites, compared to Hoechst identified parasites) against T. cruzi was determined using GraphPad Prism 5, using an unpaired student’s t-test. […]

## C#Cc1cn([C@H]2C[C@H](O)[C@@H](CO)O2)c(=O)[nH]c1=O [EdU, 5-ethynyl-2′-deoxy-uridine]
48 hours incubation, wash off, further 72 hours vs 48 hours
  fold increase in the IC50 value following wash off: 10 fold
IC50 24 h vs 48 h
  fold increase in activity against T. cruzi, 48 vs 24 hours incubation: 1.8 fold
